The values that follow come from the supplement of paper PMC10849652.

By UniProt entry, the sequences of proteins in these tests, tags left out. Where a name states a change or a piece, a line headed by the entry shows the natural chain unless it says otherwise.
UniProt Q9NPB0: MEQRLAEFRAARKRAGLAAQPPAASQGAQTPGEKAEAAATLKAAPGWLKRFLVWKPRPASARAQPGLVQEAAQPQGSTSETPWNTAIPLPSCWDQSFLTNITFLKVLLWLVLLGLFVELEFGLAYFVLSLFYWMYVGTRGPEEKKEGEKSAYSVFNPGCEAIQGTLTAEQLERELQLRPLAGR
UniProt O00560: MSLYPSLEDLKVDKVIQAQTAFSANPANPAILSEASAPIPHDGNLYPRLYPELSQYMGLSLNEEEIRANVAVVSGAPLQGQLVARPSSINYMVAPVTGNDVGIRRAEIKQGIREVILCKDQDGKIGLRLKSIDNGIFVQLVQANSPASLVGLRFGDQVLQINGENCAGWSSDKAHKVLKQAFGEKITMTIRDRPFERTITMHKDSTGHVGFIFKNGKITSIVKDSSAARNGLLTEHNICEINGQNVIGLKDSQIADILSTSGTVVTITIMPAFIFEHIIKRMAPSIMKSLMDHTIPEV
UniProt P60903, whole entry, looked up: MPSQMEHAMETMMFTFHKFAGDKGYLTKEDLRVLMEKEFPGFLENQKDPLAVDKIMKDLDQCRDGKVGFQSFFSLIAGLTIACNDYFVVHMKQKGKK
UniProt Q96FQ6: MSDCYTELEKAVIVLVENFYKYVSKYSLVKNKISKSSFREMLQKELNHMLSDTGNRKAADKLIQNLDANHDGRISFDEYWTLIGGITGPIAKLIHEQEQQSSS
UniProt Q9H0E3: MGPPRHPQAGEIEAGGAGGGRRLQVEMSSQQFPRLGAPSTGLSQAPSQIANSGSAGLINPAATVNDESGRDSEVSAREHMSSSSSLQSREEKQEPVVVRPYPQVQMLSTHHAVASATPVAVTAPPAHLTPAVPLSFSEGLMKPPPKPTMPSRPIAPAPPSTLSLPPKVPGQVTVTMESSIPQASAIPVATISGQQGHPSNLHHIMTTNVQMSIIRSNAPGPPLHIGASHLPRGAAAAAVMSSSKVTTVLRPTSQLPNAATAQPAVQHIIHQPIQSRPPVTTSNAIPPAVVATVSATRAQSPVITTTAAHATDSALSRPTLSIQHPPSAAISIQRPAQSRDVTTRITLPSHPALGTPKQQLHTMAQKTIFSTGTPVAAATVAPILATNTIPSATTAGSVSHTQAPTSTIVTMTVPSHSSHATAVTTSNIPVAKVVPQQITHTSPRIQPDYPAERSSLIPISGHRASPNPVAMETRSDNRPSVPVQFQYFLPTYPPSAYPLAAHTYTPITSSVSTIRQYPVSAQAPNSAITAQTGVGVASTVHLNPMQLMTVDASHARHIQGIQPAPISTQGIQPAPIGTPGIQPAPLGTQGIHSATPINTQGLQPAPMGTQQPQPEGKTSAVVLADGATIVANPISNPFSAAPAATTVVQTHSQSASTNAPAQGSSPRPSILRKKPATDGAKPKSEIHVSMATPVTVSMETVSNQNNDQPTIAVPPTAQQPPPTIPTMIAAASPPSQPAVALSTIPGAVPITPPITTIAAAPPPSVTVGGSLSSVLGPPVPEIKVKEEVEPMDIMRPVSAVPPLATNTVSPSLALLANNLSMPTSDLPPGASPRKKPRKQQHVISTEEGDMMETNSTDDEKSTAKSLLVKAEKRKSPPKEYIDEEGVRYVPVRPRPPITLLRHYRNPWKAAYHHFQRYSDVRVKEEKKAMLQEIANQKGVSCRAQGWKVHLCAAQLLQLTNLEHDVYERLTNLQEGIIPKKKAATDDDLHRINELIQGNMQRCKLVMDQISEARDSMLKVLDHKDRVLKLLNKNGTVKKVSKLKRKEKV
UniProt Q9UPU9: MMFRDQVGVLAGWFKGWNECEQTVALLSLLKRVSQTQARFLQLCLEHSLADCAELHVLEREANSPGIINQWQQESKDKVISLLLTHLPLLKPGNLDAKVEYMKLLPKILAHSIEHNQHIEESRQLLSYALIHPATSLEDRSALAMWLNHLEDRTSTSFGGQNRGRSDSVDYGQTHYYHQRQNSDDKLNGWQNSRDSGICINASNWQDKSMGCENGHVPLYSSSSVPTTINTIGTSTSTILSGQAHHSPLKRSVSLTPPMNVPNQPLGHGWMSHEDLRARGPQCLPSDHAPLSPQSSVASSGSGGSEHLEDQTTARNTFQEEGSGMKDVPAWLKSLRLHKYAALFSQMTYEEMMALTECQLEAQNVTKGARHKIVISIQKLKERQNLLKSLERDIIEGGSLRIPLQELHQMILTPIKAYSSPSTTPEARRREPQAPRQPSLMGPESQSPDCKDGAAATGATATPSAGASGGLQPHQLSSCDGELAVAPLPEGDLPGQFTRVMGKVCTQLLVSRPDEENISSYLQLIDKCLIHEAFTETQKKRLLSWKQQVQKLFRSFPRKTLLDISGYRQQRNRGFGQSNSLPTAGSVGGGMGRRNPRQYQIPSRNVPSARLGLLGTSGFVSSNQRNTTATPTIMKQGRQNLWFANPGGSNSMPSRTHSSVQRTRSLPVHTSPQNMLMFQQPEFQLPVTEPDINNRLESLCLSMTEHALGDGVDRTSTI
UniProt Q96IW7: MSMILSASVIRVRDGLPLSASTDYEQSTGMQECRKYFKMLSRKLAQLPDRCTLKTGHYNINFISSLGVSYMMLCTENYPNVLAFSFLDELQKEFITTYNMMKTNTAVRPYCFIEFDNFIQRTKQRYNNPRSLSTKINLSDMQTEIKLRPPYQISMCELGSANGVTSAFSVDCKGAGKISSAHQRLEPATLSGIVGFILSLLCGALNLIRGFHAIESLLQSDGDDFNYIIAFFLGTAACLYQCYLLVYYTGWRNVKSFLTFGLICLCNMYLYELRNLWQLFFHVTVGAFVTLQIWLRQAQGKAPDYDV
UniProt Q99470: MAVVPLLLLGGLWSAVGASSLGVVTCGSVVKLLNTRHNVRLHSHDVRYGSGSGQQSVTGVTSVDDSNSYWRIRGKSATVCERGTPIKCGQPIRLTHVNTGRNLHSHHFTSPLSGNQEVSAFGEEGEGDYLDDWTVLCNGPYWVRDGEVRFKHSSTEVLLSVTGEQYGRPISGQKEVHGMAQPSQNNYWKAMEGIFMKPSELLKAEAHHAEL
UniProt Q9NQC3: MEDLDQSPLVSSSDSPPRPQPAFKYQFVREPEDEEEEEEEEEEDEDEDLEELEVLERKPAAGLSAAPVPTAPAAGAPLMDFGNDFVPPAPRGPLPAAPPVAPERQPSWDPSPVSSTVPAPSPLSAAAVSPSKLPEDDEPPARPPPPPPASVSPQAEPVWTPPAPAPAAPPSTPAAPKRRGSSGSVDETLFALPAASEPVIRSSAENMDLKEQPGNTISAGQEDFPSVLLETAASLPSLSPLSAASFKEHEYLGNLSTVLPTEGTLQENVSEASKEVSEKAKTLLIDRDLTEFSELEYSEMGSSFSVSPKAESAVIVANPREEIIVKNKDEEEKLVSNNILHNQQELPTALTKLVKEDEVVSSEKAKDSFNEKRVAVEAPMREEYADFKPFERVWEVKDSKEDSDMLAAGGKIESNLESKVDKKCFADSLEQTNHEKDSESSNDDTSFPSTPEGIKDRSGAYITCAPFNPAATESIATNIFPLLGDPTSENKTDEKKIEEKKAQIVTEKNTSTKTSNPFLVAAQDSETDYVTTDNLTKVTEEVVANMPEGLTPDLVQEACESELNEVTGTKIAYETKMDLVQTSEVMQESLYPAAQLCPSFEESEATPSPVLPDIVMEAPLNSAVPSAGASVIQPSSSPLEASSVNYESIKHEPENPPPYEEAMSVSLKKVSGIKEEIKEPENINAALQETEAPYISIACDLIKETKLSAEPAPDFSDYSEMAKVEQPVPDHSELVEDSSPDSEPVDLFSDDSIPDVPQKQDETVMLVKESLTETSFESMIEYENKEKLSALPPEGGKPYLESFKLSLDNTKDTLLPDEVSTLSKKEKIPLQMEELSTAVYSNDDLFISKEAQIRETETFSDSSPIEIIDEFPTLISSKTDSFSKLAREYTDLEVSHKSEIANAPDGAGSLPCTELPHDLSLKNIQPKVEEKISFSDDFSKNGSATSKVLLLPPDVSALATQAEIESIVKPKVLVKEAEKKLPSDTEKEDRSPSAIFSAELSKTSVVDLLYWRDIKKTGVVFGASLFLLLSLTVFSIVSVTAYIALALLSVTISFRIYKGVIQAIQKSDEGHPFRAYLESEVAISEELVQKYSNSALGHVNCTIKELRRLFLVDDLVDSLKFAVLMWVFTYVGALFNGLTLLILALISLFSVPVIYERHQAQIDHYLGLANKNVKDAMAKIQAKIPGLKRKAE
UniProt A6ZKI3: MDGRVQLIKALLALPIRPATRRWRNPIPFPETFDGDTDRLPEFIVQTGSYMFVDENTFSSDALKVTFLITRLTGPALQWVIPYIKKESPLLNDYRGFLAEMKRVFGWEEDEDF
UniProt Q8IZE3: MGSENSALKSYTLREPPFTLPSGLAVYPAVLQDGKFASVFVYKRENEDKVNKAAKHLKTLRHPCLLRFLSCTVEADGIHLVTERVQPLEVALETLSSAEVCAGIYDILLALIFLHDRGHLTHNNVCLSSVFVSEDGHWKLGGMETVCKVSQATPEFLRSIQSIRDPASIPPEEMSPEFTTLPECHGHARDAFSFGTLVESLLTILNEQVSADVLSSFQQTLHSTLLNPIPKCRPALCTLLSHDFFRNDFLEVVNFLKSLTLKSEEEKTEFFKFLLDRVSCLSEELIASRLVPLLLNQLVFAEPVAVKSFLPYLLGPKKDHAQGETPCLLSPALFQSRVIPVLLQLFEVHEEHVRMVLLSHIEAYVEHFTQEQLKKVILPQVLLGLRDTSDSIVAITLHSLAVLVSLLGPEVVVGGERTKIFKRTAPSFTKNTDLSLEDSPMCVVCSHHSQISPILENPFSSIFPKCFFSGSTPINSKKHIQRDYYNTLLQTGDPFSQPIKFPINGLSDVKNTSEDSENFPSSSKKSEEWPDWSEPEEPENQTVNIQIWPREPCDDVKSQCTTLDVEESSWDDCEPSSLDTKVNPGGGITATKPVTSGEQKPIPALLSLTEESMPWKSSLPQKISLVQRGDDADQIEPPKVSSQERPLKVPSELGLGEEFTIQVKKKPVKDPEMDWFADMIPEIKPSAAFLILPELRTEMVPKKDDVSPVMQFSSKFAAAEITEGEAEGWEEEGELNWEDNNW
UniProt Q8N9R8: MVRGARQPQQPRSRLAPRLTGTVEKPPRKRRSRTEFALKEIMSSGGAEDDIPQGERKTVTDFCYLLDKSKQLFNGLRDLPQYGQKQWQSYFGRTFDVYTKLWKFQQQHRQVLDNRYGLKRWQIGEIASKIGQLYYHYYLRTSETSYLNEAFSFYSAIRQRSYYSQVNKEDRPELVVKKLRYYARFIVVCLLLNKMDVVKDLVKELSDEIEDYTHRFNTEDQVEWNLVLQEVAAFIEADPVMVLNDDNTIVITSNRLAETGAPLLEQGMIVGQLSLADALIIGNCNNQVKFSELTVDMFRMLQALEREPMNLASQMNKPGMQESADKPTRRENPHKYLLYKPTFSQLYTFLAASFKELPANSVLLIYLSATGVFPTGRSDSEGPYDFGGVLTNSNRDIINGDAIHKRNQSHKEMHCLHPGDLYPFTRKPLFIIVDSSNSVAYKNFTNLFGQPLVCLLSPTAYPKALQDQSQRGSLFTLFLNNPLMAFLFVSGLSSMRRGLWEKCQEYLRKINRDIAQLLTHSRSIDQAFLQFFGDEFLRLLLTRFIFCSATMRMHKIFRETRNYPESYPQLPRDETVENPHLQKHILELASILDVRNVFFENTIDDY
UniProt Q7L3V2: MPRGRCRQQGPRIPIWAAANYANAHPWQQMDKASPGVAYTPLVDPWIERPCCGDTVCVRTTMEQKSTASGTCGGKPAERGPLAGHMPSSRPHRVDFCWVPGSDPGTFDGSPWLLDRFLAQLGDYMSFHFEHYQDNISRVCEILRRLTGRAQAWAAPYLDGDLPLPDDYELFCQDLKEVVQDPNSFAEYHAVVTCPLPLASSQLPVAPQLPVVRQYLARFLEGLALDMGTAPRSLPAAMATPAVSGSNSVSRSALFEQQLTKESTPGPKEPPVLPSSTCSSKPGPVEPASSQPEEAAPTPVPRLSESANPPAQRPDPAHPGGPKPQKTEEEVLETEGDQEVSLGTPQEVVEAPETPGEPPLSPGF
UniProt P29034: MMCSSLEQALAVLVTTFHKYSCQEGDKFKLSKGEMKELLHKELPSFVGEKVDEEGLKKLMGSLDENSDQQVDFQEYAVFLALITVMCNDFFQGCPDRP
UniProt P48443: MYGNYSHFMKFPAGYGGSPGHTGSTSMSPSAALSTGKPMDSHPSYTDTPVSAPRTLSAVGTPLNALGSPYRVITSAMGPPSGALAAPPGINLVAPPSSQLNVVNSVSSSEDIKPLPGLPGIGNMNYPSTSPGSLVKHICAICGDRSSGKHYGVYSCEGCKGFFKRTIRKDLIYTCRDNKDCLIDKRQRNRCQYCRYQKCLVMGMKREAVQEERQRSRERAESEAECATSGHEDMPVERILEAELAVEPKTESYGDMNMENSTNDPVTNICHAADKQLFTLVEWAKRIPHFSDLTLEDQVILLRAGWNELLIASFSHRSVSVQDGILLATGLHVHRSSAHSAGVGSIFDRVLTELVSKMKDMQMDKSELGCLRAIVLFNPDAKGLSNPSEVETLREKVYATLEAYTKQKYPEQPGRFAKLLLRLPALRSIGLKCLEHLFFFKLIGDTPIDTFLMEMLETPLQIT

The other results are listed elsewhere or left out.

Compound in one assay: CS(=O)(=O)c1ccc(-c2cnc(N)c(C(=O)Nc3ccccc3)n2)cc1
Description: log2 fold change, soluble protein after heating vs DMSO (PISA); higher = thermal stabilisation; K562 cells, 10 uM, 30 min; active = over 0.2 and 3.5 SD of the protein, either way, in both replicates (recomputed). The procedure, abridged:
(§1)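 Values are thermal stability changes relative to control samples and are taken from duplicates. They are stated as log2 fold changes. Before quantification by TMTpro 16plex LC-MS/MS with equalised channel sums, K562 cells at 2×10^6 cells/mL were treated with 10 μM compound for 30 min, heated in aliquots for 3 min across 48°C-58°C, pooled, extracted in PBS with 0.5% NP-40 at 4°C, and centrifuged at 21,000xg for 90 min to give the soluble supernatant.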
With SAYSD1 (UniProt Q9NPB0), the log2 fold change is inactive: 0.062.

On to RXRB isoform 3 (UniProt P28702), for which the log2 fold change is inactive: 0.141.

As to RSL24D1 (UniProt Q9UHA3), the log2 fold change was inactive: -0.14.

Consider SDCBP isoform 2 (UniProt O00560), for which the log2 fold change was inactive: 0.093.

For S100A10 (UniProt P60903), the log2 fold change is inactive: -0.004.

Compound in a further assay: C[C@@H](Oc1cc(-c2cnn(C3CCNCC3)c2)cnc1N)c1c(Cl)ccc(F)c1Cl [crizotinib]
The description is as above. The procedure, abridged:
as §1
With S100A16 (UniProt Q96FQ6), the log2 fold change is inactive: -0.043.

Take SAP130 isoform 3 (UniProt Q9H0E3): the log2 fold change was inactive: -0.016.

On to SAFB2 (UniProt K7EQU4), for which the log2 fold change is inactive: -0.244.

As for SAMD4A (UniProt Q9UPU9), the log2 fold change is inactive: 0.136.

Consider S100A4 (UniProt P26447), for which the log2 fold change is inactive: 0.056.

Turning to SEC22A (UniProt Q96IW7), the log2 fold change is inactive: 0.136.

Consider SDF2 (UniProt Q99470), for which the log2 fold change was inactive: -0.051.

For the target RTN4 isoform 5 (UniProt Q9NQC3), the log2 fold change was inactive: 0.097.

For the target RTL8C (UniProt A6ZKI3), the log2 fold change is inactive: -0.189.

With SCRIB isoform 3 (UniProt Q14160), the log2 fold change was inactive: 0.059.

Regarding SCYL3 isoform 2 (UniProt Q8IZE3), the log2 fold change was inactive: -0.118.

For SCAMP3 isoform 2 (UniProt O14828), the log2 fold change was inactive: 0.151.

SCAI isoform 2 (UniProt Q8N9R8): the log2 fold change was inactive: 0.052.

Compound in a further assay: C[C@@H]1COCCN1C2=NC(=NC(=C2)C3(CC3)S(=O)(=O)C)C4=C5C=CNC5=CC=C4
The description is as above. The procedure, abridged: as §1
Turning to S100A16 (UniProt Q96FQ6), the log2 fold change was inactive: -0.36.

As to SAYSD1 (UniProt Q9NPB0), the log2 fold change was inactive: 0.352.

For the target SAFB2 (UniProt K7EQU4), the log2 fold change was inactive: 0.275.

As for SBF2 (UniProt Q86WG5), the log2 fold change was inactive: -0.073.

In the case of SAMD4A (UniProt Q9UPU9), the log2 fold change was inactive: -0.015.

On to RXRB isoform 3 (UniProt P28702), for which the log2 fold change was inactive: 0.06.

With RSL24D1 (UniProt Q9UHA3), the log2 fold change is inactive: -0.711.

In the case of SDF2 (UniProt Q99470), the log2 fold change was inactive: -0.128.

As for SDCBP isoform 2 (UniProt O00560), the log2 fold change was inactive: -0.108.

For RTN4 isoform 5 (UniProt Q9NQC3), the log2 fold change was inactive: -0.016.

On to RTL8C (UniProt A6ZKI3), for which the log2 fold change was inactive: -0.186.

In the case of RTL10 (UniProt Q7L3V2), the log2 fold change is inactive: 0.045.

On to SCYL3 isoform 2 (UniProt Q8IZE3), for which the log2 fold change was inactive: -0.106.

Consider RTN4, A0A0U1RQR6, for which the log2 fold change is inactive: 0.134.

For SCAMP3 isoform 2 (UniProt O14828), the log2 fold change was inactive: -0.05.

Consider SCAI isoform 2 (UniProt Q8N9R8), for which the log2 fold change is inactive: 0.048.

Compound in another assay: C[C@H](C1=CC=C(C=C1)C(=O)NC2=C3C=CNC3=NC=C2)N
The description is as above. The procedure, abridged: as §1
Consider SAYSD1 (UniProt Q9NPB0), for which the log2 fold change was inactive: -0.08.

For S100A2 (UniProt P29034), the log2 fold change was inactive: -0.075.

With SAP130 isoform 3 (UniProt Q9H0E3), the log2 fold change is inactive: 0.062.

For SEC22A (UniProt Q96IW7), the log2 fold change is inactive: -0.013.

Regarding RTN4 isoform 5 (UniProt Q9NQC3), the log2 fold change is inactive: 0.008.

In the case of RTL10 (UniProt Q7L3V2), the log2 fold change is inactive: -0.066.

As for SCRIB isoform 3 (UniProt Q14160), the log2 fold change was inactive: 0.316.

With SCYL3 isoform 2 (UniProt Q8IZE3), the log2 fold change is inactive: -0.044.

Take S100A10 (UniProt P60903): the log2 fold change is inactive: 0.063.

Regarding SDHB, A0A087WXX8, the log2 fold change is inactive: 0.159.

Regarding SCAI isoform 2 (UniProt Q8N9R8), the log2 fold change is inactive: 0.057.

Compound in a further assay: C[C@H](Nc1ncnc2nc[nH]c12)c1cc2cccc(Cl)c2c(=O)n1-c1ccccc1 [duvelisib]
The assay is described as above. Put shortly:
as §1
Consider S100A16 (UniProt Q96FQ6), for which the log2 fold change is inactive: -0.122.

For S100A2 (UniProt P29034), the log2 fold change is inactive: -0.062.

With SBF2 (UniProt Q86WG5), the log2 fold change was inactive: 0.051.

For SAMD4A (UniProt Q9UPU9), the log2 fold change is inactive: -0.062.

As to SEC22A (UniProt Q96IW7), the log2 fold change was inactive: -0.055.

On to RTN4 isoform 5 (UniProt Q9NQC3), for which the log2 fold change is inactive: 0.41.

Consider RTL8C (UniProt A6ZKI3), for which the log2 fold change was inactive: 0.097.

On to S100A14 (UniProt Q9HCY8), for which the log2 fold change was inactive: -0.357.

For the target RTL10 (UniProt Q7L3V2), the log2 fold change was inactive: -0.048.

SCN4A (UniProt P35499): the log2 fold change was inactive: 0.035.

Take SCRIB isoform 3 (UniProt Q14160): the log2 fold change is inactive: 0.154.

Take SDHB, A0A087WXX8: the log2 fold change was inactive: 0.143.

With SCAI isoform 2 (UniProt Q8N9R8), the log2 fold change is inactive: 0.056.

Compound in the next assay: Cc1cc(Nc2cc(CN3CCOCC3)c3nc(C)c(Cc4ccc(Cl)cc4F)n3n2)n[nH]1 [gandotinib]
Described as above. The procedure, abridged:
as §1
In the case of SAP130 isoform 3 (UniProt Q9H0E3), the log2 fold change is inactive: 0.024.

Turning to SBF2 (UniProt Q86WG5), the log2 fold change is inactive: 0.069.

For RXRG (UniProt P48443), the log2 fold change was inactive: -0.176.

SEC22A (UniProt Q96IW7): the log2 fold change was inactive: 0.115.

Turning to SDF2 (UniProt Q99470), the log2 fold change is inactive: 0.18.

With SDCBP isoform 2 (UniProt O00560), the log2 fold change was inactive: 0.058.

As for RTN4 isoform 5 (UniProt Q9NQC3), the log2 fold change was inactive: -0.122.

Turning to RTL8C (UniProt A6ZKI3), the log2 fold change was inactive: -0.051.

Consider RTL10 (UniProt Q7L3V2), for which the log2 fold change is inactive: 0.084.

As to SCRIB isoform 3 (UniProt Q14160), the log2 fold change was inactive: -0.129.

As to SCYL3 isoform 2 (UniProt Q8IZE3), the log2 fold change was inactive: -0.069.

For S100A10 (UniProt P60903), the log2 fold change was inactive: 0.131.

For the target SDHB, A0A087WXX8, the log2 fold change is inactive: -0.152.

As to SATB2 (UniProt Q9UPW6), the log2 fold change was inactive: -0.615.
